According to PubChem BioAssay AID588590 (National Center for Advancing Translational Sciences (NCATS), 2011):
Several values for one entry are separate records, joined by “and”; a condition that tells them apart may be missing. Equal entries are not always repeated. About 4,000 (1%) of roughly 390,000 compounds were called active. Inconclusive means that the source gave no clear call. Such entries were picked first, then a sample of the others. Calls come from the whole dose curve; as a rule, active = well fitted inhibition curve with a large enough effect; inconclusive = small, poorly fitted or top-dose-only effect, or another doubt; inactive = no such curve, though single readings can be large or run the other way. Potencies beside an inconclusive call are fits to weak or partial responses and may not hold up.

By UniProt entry, the sequences of proteins in these tests, tags left out. Where a name states a change or a piece, a line headed by the entry shows the natural chain unless it says otherwise.
UniProt Q9UNA4: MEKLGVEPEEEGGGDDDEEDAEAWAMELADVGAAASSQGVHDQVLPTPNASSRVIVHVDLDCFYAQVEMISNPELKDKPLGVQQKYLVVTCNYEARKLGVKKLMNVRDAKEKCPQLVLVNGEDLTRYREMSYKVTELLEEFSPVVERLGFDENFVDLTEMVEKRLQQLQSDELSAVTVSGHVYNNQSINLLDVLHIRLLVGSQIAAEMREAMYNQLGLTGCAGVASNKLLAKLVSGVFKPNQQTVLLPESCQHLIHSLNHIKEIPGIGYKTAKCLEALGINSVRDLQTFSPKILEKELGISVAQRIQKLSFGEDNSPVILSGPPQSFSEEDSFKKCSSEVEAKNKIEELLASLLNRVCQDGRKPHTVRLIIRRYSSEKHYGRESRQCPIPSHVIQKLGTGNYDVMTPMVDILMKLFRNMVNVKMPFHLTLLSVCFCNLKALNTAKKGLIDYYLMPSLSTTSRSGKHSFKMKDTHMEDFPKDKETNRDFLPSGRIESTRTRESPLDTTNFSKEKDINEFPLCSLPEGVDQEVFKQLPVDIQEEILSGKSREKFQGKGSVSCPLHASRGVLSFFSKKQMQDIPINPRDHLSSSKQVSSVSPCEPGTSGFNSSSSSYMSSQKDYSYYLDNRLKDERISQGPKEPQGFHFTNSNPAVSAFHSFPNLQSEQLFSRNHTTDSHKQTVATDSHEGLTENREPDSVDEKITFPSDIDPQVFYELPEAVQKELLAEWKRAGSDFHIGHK

The molecules below were run against DNA polymerase iota (Homo sapiens) (UniProt Q9UNA4) (assay: qHTS for Inhibitors of Polymerase Iota). Details: Pol iota fluorescent replication assay, 10 min; series mostly up to 115 µM; activity, negative = inhibition: at the top concentration.
Method in brief: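 Fluorescent replication assay read twice, at 0 min and 10 min after adding 50 nM (final) substrate. Enzyme (10 nM) and compounds were first incubated 15 min at room temperature; enzyme-free buffer wells were negative controls.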
Potency is the fitted concentration of half-maximal effect.

activity, negative = inhibition, inactive:
Cc1ccc(SCC(=O)OCn2nnc3ccccc3c2=O)cc1C -6.8%
O=S(=O)(c1cccc(C(F)(F)F)c1)n1c(/C=C/c2ccccc2)nc2ccccc21 -8.22%
CC(=O)Nc1ccc(NC(=O)C(C)OC(=O)c2ccc3[nH]c(C)c(C)c3c2)cc1 (stereo unspecified) -9.22%
O=C(Cc1ccc(OCC2CCCCC2)cc1)NO -8.06%
COc1cc(/C=N/NC(=O)COc2ccc([N+](=O)[O-])cc2)ccc1OCC(=O)N1CCOCC1 -7.82%
O=C1[C@H]2CCC=C[C@H]2[C@H](c2cccc(Br)c2)N1Cc1ccccc1 -22.6%
CC(OC(=O)c1ccccc1OCC(=O)Nc1ccc(Br)cc1)C(=O)NC1CCCC1 (stereo unspecified) -4.42%
O=C(CSc1ccccc1Cl)NC1CCCc2ccccc21 (stereo unspecified) 94.6%
COc1cc(-c2nc(Cn3nnc(C(=O)Nc4cc(C)cc(C)c4)c3C)c(C)o2)cc(OC)c1OC -9.31%
O=S(=O)(c1ccc(N=C2NN=C(c3cc(F)ccc3F)CS2)cc1)N1CCOCC1 -1.41%

A stretch of the results above, for reference:
activity, negative = inhibition, inactive:
Cc1ccc(SCC(=O)OCn2nnc3ccccc3c2=O)cc1C -6.8%
O=S(=O)(c1cccc(C(F)(F)F)c1)n1c(/C=C/c2ccccc2)nc2ccccc21 -8.22%
CC(=O)Nc1ccc(NC(=O)C(C)OC(=O)c2ccc3[nH]c(C)c(C)c3c2)cc1 (stereo unspecified) -9.22%
O=C(Cc1ccc(OCC2CCCCC2)cc1)NO -8.06%

Following part.

Potency, inconclusive:
C=CCNC(=O)/C(C#N)=C\c1cc(Cl)c(O)c(OCC)c1 79.4 µM [inhibitor, single point]
O=Cc1cc(N=Nc2ccc(S(=O)(=O)O)cc2)ccc1O 28.2 µM [inhibitor, partial curve, poor fit]
Cc1ccc2cc3c(NC(=O)CC(C)C)nn(C)c3nc2c1 3.55 µM [inhibitor, full curve, poor fit]
CC(C)CNC(=O)COC(=O)c1c2c(nc3ccccc13)/C(=C\c1cccs1)CC2 31.6 µM [inhibitor, partial curve, poor fit]
Cc1ccsc1/C=N/NC(=O)CNC(=O)c1ccccc1 28.2 µM [inhibitor, full curve, poor fit]
CCOC(=O)CC(=O)Nc1nnc(CC(C)C)s1 50.1 µM [inhibitor, partial curve, poor fit]
COc1ccc(C(=O)COC(=O)c2cccc(-n3cnnn3)c2)c(OC)c1 28.2 µM [inhibitor, partial curve, poor fit]
Cc1cccc(NC(=O)N(Cc2cc3cc(C)cc(C)c3[nH]c2=O)CC2COCCO2)c1 (stereo unspecified) 100 µM [inhibitor, single point]
CCn1nc(NC(=O)CC(C)C)c2cc3ccc(C)cc3nc21 63.1 µM [inhibitor, single point]
Cc1ccc(CNc2ncnc3cc(Cl)ccc23)cc1 25.1 µM [inhibitor, single point]
O=C(CSC(=S)N1CCOCC1)N1N=CCC1c1ccccc1 (stereo unspecified) 89.1 µM [inhibitor, partial curve, poor fit]
O=C1CN(C(=O)Cn2ncc(Cl)c(Cl)c2=O)c2ccccc2N1 8.91 µM [inhibitor, full curve, poor fit]
Cc1ccc(-c2n[nH]c(=S)n2/N=C/C=C/c2ccccc2[N+](=O)[O-])cc1 17.8 µM [inhibitor, full curve, poor fit]
COC(=O)c1cc2occc2n1CC(=O)N(C)C1CCCCC1 7.94 µM [inhibitor, full curve, poor fit]
CCOC(=O)c1sc(N2N=C(C)/C(=C\c3ccc(OCC(=O)OC)cc3)C2=O)nc1C 35.5 µM [inhibitor, single point]
CSc1cccc(NC(=O)CN(c2ccccc2)S(=O)(=O)N(C)C)c1 31.6 µM [inhibitor, partial curve] and 79.4 µM [inhibitor, single point]
Cc1nnc(SCC(=O)Nc2ccc(Br)cc2)[nH]c1=O 31.6 µM [inhibitor, partial curve, poor fit]
COc1ccc(NC(=O)Cn2nnc(C(=O)NCCc3ccccc3)c2N)c(OC)c1 39.8 µM [inhibitor, single point]
CCOCC(=O)Nc1ccc(-c2cn3cccnc3n2)cc1 79.4 µM [inhibitor, partial curve, poor fit]
CCOc1ccc(C2Sc3ccccc3NC3=C2C(=O)OC3)cc1 (stereo unspecified) 0.708 µM [inhibitor, full curve, poor fit]
COc1ccc(CNCC2COc3ccccc3O2)cc1 (stereo unspecified) 7.94 µM [inhibitor, partial curve, poor fit]
O=C(COC(=O)c1ccc(-n2cnnn2)cc1)Nc1cc(Cl)ccc1F 22.4 µM [inhibitor, full curve, poor fit]
CC1=C(C)/C(=N\OC(=O)/C=C/c2ccccc2)C=CC1=O 89.1 µM [inhibitor, single point]
COC(=O)c1cc(NC(=O)CN(C)C2CCS(=O)(=O)C2)cc(C(=O)OC)c1 (stereo unspecified) 89.1 µM [inhibitor, partial curve, poor fit]
COc1ccc(NC(=O)Cn2nc(C(=O)O)c3ccccc3c2=O)cc1OC 89.1 µM [inhibitor, single point]
C=CCc1cccc2cc(C(=O)Nc3ccc(CC(=O)O)cc3)c(=O)oc12 22.4 µM [inhibitor, partial curve, poor fit]
Cc1occc1C(=O)Nc1sc2c(c1C(N)=O)CCCCC2 0.708 µM [inhibitor, full curve, poor fit]
O=C(O)c1cc(S(=O)(=O)N2CCN(S(=O)(=O)c3ccc4ccccc4c3)CC2)ccc1Br 35.5 µM [inhibitor, partial curve, poor fit]
Cc1occc1C(=O)NCCCCc1ccccc1 12.6 µM [inhibitor, partial curve, poor fit]

Potency, active:
COc1cc(/C=C2/C=Cc3ccccc32)ccc1N(C)C 70.8 µM
O=C(Nc1ccc2c(c1)OCO2)C1Cc2ccccc2CN1S(=O)(=O)c1cccs1 (stereo unspecified) 20 µM
